Measurements taken from publication doi:10.1101/2023.02.23.529725.
No constants are given. Whether binding was seen depends on the method and setting. For some assays here: In cells and extracts the contact can be indirect. For some assays here: Binding can be weak; no strength is given. For some assays here: Where a sequence is shown, tags or fusion partners need not be part of it.

Protein sequences, listed by entry. Tags and fused reporters are not part of them. Lines headed by an entry give the natural chain unless they say otherwise; changes in a name come on top.
UniProt Q42577: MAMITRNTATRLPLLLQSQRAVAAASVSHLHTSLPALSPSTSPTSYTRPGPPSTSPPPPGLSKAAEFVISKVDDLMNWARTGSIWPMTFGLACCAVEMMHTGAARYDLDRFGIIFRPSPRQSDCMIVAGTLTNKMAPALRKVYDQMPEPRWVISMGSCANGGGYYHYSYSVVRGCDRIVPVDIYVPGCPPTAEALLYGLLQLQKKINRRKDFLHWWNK
UniProt Q9FGI6: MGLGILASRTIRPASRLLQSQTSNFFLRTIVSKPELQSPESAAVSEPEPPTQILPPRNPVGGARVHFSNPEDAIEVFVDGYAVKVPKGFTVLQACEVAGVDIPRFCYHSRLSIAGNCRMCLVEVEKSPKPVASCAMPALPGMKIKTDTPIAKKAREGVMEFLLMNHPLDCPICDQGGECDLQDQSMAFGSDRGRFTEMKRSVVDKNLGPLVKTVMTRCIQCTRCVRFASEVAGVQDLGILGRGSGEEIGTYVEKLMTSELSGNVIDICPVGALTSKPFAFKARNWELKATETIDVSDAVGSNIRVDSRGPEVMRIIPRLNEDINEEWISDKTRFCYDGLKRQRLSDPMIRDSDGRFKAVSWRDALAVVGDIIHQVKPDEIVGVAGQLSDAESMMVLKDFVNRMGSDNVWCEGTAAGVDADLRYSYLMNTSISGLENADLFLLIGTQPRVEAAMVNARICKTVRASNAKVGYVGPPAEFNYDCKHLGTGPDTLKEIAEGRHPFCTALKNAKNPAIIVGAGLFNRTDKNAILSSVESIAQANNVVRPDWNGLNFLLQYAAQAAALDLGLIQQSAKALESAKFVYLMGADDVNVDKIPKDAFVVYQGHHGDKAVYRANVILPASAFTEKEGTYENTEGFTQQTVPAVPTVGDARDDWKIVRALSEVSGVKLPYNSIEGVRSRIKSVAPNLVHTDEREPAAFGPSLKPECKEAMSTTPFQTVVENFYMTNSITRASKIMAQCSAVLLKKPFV
UniProt Q9C6B3: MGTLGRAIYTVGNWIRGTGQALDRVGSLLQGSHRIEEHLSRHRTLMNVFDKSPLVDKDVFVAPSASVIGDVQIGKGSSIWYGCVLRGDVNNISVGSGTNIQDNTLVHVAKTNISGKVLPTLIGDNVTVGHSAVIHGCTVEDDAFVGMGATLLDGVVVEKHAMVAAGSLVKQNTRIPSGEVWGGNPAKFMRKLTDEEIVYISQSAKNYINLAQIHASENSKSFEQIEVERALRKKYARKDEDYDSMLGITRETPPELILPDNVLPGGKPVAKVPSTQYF
UniProt Q9FMV1: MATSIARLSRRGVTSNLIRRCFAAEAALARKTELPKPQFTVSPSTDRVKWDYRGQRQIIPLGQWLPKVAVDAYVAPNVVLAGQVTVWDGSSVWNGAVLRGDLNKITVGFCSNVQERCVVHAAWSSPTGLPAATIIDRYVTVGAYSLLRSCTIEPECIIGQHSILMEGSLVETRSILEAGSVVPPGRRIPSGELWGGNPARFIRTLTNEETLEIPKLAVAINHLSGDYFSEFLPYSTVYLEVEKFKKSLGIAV
UniProt Q9FJW4: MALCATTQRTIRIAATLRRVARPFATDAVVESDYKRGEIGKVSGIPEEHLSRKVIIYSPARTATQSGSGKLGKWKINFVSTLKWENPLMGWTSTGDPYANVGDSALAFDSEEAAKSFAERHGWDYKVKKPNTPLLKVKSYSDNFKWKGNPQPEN
UniProt P83483: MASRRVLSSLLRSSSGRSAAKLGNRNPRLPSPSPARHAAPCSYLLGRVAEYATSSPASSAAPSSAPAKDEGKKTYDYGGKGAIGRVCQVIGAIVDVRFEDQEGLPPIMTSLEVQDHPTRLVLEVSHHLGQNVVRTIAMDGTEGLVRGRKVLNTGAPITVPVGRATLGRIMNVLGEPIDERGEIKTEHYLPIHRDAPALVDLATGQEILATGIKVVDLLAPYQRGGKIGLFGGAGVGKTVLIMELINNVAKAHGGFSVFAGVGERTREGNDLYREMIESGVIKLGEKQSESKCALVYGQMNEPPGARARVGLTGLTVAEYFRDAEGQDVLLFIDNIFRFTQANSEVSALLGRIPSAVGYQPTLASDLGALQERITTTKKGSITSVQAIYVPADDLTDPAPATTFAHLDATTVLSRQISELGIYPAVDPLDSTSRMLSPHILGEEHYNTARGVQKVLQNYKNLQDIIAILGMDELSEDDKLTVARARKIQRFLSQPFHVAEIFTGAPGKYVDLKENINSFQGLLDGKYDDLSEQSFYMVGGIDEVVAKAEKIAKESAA
UniProt Q84WU8: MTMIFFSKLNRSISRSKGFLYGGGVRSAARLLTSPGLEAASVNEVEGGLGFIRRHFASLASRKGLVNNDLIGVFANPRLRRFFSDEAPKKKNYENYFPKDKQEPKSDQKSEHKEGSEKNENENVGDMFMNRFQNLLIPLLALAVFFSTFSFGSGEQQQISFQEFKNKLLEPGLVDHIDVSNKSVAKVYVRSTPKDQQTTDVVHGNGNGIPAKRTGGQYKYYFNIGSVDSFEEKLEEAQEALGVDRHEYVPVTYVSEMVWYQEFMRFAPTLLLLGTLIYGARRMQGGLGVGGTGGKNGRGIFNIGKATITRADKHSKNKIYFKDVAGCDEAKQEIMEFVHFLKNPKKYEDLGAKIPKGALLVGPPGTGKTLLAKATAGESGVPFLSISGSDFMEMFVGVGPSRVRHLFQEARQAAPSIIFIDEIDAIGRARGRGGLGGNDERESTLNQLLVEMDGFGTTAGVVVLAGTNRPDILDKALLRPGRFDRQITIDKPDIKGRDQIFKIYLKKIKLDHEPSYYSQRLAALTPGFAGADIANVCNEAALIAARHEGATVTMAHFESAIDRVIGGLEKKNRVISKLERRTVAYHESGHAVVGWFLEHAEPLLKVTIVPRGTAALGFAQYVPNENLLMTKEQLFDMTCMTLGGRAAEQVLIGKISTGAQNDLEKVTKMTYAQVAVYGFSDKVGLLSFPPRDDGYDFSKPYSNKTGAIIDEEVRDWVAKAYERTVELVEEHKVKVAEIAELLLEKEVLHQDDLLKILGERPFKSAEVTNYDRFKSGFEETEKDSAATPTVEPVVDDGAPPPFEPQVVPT
UniProt Q94JS0: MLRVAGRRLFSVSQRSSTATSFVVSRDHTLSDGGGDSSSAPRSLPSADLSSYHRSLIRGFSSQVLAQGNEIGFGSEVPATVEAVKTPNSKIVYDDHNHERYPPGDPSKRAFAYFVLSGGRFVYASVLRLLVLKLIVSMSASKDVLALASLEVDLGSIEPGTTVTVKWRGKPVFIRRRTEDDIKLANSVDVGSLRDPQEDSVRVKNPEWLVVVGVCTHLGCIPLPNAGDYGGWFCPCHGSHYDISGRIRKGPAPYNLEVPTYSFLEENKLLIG

Tests used:
[1] = biological target: T1, FLAG-tagged CI subunit B14.7 (B14.7^FLAG) (Arabidopsis (Col-0)) (UniProt O48528); assay: co-IP
T1 sequence: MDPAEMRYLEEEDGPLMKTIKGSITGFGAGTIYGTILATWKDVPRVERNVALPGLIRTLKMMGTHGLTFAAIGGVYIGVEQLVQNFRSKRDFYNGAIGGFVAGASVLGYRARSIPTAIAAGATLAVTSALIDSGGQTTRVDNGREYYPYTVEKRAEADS

[2] = biological target: PSST, yeast two-hybrid fusion (Arabidopsis (Col-0)) (UniProt Q42577); assay: two-hybrid

Substance | binding [1] | binding [2]
75 kD complex I subunit (from UniProt Q9FGI6) | binds | –
CA2 complex I subunit (from UniProt Q9C6B3) | binds | –
CAL1 complex I subunit (from UniProt Q9FMV1) | binds | –
PSST, 20 kD complex I Q-module subunit | binds | –

Now from value to substance:

binding [1] | binding [2] | Substance
binds | – | 18 kD (NDUFS4) complex I subunit (from UniProt Q9FJW4)
no binding | – | ATP synthase subunit-β (ATPβ) (from UniProt P83483)
– | no binding | FTSH3^TRAP/P415L, yeast two-hybrid fusion (from UniProt Q84WU8 1-809) (enzyme)
no binding | – | Rieske iron-sulfur protein (RISP), complex III subunit (from UniProt Q94JS0)
